{"sequences": {"note": "Sequences of proteins named here, by UniProt entry; tags and fusion partners are left off. A change or cut given only in a name is not applied to a line headed by its entry.", "UniProt P00352": "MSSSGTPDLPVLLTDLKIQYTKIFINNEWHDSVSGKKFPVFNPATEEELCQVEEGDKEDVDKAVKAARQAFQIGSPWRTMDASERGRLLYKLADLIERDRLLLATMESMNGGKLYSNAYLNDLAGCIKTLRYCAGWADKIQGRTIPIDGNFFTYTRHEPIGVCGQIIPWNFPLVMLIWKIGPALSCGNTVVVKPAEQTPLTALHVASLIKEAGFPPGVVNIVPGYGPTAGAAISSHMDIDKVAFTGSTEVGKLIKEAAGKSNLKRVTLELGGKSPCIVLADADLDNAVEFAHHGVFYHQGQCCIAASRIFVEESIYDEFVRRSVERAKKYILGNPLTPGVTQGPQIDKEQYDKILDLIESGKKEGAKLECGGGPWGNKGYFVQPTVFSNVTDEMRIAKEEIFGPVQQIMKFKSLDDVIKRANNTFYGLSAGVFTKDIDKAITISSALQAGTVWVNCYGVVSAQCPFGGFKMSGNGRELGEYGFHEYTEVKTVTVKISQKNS"}, "source": "PubChem BioAssay AID493210", "about": "(National Center for Advancing Translational Sciences (NCATS), 2011)", "note": "Inconclusive results, whose numbers are uncertain, are shown with a selection of clear calls. Potencies beside an inconclusive call are fits to weak or partial responses and may not hold up. Activity calls are given as the source filed them. Calls follow the shape of the full dose curve.", "data": [{"target": "Aldehyde dehydrogenase 1A1 (Homo sapiens) (UniProt P00352)", "test": "Inhibitors of Aldehyde Dehydrogenase 1 (ALDH1A1): Followup Confirmation and Counterscreen", "conditions": "purified ALDH1A1, NADH fluorescence, propionaldehyde/NAD+; series mostly up to 57.1 µM; activity change, negative = inhibition: at the top concentration", "description": "Aldehyde dehydrogenase 1 (ALDH1A1) catalyzes the NAD+ dependent oxidation of a variety of endogenous and exogenous aldehydes to the corresponding carboxylic acids. The enzyme is the critical step in the metabolic activation of retinoic acid, which plays essential roles as nuclear receptor ligand. […] See [1] through for more information on ALDH1A1. Inhibition of ALDH1A1 activity was screened by utilizing propionaldehyde as an electron donor and NAD+ as an electron acceptor/cofactor. An increase in the fluorescence intensity due to conversion of NAD+ to NADH was used to measure the enzyme activity. See [5] for screening methodology used. References: [1] Manzer R, Qamar L, Estey T, Pappa A, Petersen DR, Vasiliou V. Molecular cloning and baculovirus expression of the rabbit corneal aldehyde dehydrogenase (ALDH1A1) cDNA. DNA Cell Biol. 2003 May;22(5):329-38. Collard F, Vertommen D, Fortpied J, Duester G, Van Schaftingen E. Identification of 3-deoxyglucosone dehydrogenase as aldehyde dehydrogenase 1A1 (retinaldehyde dehydrogenase 1). Biochimie. 2007 Mar;89(3):369-73. Ziouzenkova O, Orasanu G, Sharlach M, Akiyama TE, Berger JP, Viereck J, Hamilton JA, Tang G, Dolnikowski GG, Vogel S, Duester G, Plutzky J. Retinaldehyde represses adipogenesis and diet-induced obesity. Nat Med. 2007 Jun;13(6):695-702. Molotkov A, Duester G. Genetic evidence that retinaldehyde dehydrogenase Raldh1 (Aldh1a1) functions downstream of alcohol dehydrogenase Adh1 in metabolism of retinol to retinoic acid. J Biol Chem. 2003 Sep 19;278(38):36085-90. […] Quantitative high-throughput screening: a titration-based approach that efficiently identifies biological activities in large chemical libraries. […]\nBuffer: 100 mM Hepes pH 7.5, 0.01% Tween 20. […] The plates were immediately transferred to and read twice on ViewLux High-throughput CCD imager (Perkin-Elmer) 20 minutes apart using 360 nm excitation and 450 nm emission fluorescence protocol. The fluorescence intensity difference between the second and the first time points was used to compute reaction progress.", "values": [{"smiles": "Cc1c(Cl)cccc1NC(CC(=O)c1ccccc1)C(=O)O", "note": "(stereo not drawn)", "activity change, negative = inhibition": "inactive: -21.1%"}, {"smiles": "O=C(CC(Nc1ccccc1Cl)C(=O)O)c1ccccc1", "note": "(stereo not drawn)", "activity change, negative = inhibition": "inactive: -23.5%"}, {"smiles": "O=C(CN1CCN(C2CCCCC2)CC1)Nc1ccccc1-c1ccccc1", "Potency": "inconclusive: 14.1 µM [inhibitor, partial curve]"}]}]}
